From US20210002378A1

How the values were obtained:
SEAP-His [1] = experiment: ELISA: SEAP-His proteins captured by anti-6-His antibody, antibody B at one concentration, HRP anti-human IgG, OD450 nm as % of human EphA4-SEAP-His
SEAP-His [2] = experiment: ELISA: SEAP-His proteins captured by anti-6-His antibody, antibody A at one concentration, HRP anti-mouse IgG, OD450 nm as % of human EphA4-SEAP-His

binding (SEAP-His [1]) | binding (SEAP-His [2]) | Binder
no binding (tested: 10 µg/mL) | – | humanized anti-EphA4 monoclonal antibody (antibody B) (antibody, V domains shown) VH: QVQLVESGGGVVQPGRSLRLSCAVSGFSLTRFGVHWVRQAPGKGLEWVAVIWRGGSTDYNAAFMSRLTISKDNSKNTVYLQMNSLRAEDTAVYYCAKESLFGVYYDYGYYSMDYWGQGTTVTVSS VL: DIQMTQSPSSLSASVGDRVTITCRASQEISGYLSWLQQKPGKAPKRLIYAASTLDSGVPSRFSGSRSGTEYTLTISSLQPEDFATYYCLQYASYPLTFGGGTKVEIKR
– | no binding (tested: 10 µg/mL) | mouse anti-EphA4 monoclonal antibody (antibody A) (antibody, mouse IgG1, kappa, V domains shown) VH: QVQLKQSGPSLVQPSQSLSITCTVSGFSLTRYGVHWVRQSPGKGLEWLGVIWRGGSTDYNAAFMSRLSITKDNSKSQVFFKMNSLQADDTAIYYCAKESLFGVYYDYGYYSMDYWGQGTSVTVSS VL: DIQMTQSPSSLSASLGERVSLTCRASQEISGYLSWLQQKPDGTIKRLIYAASTLDSGVPKRFSGSRSGSDYSLTISSLESEDFADYYCLQYASYPLTFGAGTKLELKR

Results are given in words; binding and its absence hold for the method and conditions named.
